Laboratory results published in patent US6448293B1, “Diphenyl ether compounds useful in therapy” (Pfizer Inc., priority 2000, dated 2002).
Some results were stated once for a whole list of compounds, not compound by compound.

By UniProt entry, the sequences of proteins in these tests, tags left out.
UniProt P31645, whole entry: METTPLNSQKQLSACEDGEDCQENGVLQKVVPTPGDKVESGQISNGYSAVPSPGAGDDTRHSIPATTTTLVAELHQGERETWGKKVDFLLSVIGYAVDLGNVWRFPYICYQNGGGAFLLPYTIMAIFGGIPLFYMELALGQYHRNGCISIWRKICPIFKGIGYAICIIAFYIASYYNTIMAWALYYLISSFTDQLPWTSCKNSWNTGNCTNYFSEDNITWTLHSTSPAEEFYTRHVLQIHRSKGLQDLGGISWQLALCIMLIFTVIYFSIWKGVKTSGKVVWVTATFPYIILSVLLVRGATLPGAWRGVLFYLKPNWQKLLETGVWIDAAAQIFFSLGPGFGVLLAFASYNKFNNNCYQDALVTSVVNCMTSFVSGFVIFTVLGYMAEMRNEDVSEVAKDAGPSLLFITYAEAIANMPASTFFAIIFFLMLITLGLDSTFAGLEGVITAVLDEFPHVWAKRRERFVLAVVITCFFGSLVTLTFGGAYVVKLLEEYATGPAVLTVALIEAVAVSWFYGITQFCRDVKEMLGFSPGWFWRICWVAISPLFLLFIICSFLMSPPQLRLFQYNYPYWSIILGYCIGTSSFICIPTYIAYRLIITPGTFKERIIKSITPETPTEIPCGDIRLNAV

Target: T1, human serotonin transporter (hSERT) (Homo sapiens, UniProt P31645)
T1 construct: expressed in transfected cells; host or cells: HEK-293 (human embryonic kidney cells), stably transfected
Assay: Inhibition of 3H-Serotonin uptake into HEK-293 cells stably transfected with hSERT
Assay type: cell-based
Settings: for IC50: HEK-293 cells transfected with hSERT, 3H-Serotonin uptake, 5 minutes incubation, room temperature, read-out: serotonin re-uptake inhibition (SRI) IC50; for fold as potent in the inhibition of serotonin re-uptake than in the inhibition of dopamine re-uptake or noradrenaline re-uptake: selectivity of hSERT over hDAT or hNET uptake inhibition; for fold as potent in the inhibition of serotonin re-uptake than in the inhibition of dopamine re-uptake and noradrenaline re-uptake: selectivity of hSERT over both hDAT and hNET uptake inhibition
Method: A number of compounds were tested for biological activity by their ability to inhibit the uptake of serotonin by human serotonin transporters as follows.
Human embryonic kidney cells (HEK-293) stably transfected with either the human serotonin transporter (hSERT), noradrenaline transporter (hNET) or dopamine transporter (hDAT) were cultured under standard cell culture techniques (cells were grown at 37° C and 5% CO2 in DMEM-culture media (supplemented with 10% dialysed foetal calf serum (FCS), 2 mM 1-glutamine and 250 μg/ml geneticin)). Cells were harvested for the assay to yield a cell suspension of 750,000 cells/ml.
(i) Determination of inhibitor potency
All test compounds were dissolved in 100% DMSO and diluted down in assay buffer to give appropriate test concentrations. Assays were carried out in 96-well filter bottom plates. Cells (7500 cells/assay well) were pre-incubated in standard assay buffer containing either test compound, standard inhibitor or compound vehicle (1 % DMSO) for 5 minutes. Reactions were started by addition of either ^3H-Serotonin, ^3H-Noradrenaline or ^3H-Dopamine substrates. All reactions were carried out at room temperature in a shaking incubator. Incubation times were 5 minutes for the hSERT and hDAT assays and 15 minutes for the hNET assay. Reactions were terminated by removal of the reaction mixture using a vacuum manifold followed by rapid washing with ice cold assay buffer. The quantity of ^3H-substrate incorporated into the cells was then quantified.
Assay plates were dried in a microwave oven, scintillation fluid added, and radioactivity measured.
(iii) Standard Assay Buffer Composition:
Note: The pH of the buffer was adjusted to 7.40 with 1 M NaOH before addition of CaCI2 and pargyline.
(iv) Summary of Assay Parameters

Question: Which IC50 does the source give for `CNC(=O)c1ccc(Oc2ccc(SC)cc2)c(CN(C)C)c1` [Example 159, 3-[(Dimethylamino)methyl]-N-methyl-4-[4-(methylsulfanyl)phenoxy]benzamide] here?
Answer: ≤ 100 nM

Question: How did the IC50 turn out when `CSc1ccc(Oc2ccc(C(=O)NCCO)cc2CN(C)C)cc1` [Example 160] was run?
Answer: ≤ 100 nM

Question: Which IC50 does the source give for `COCCNC(=O)c1ccc(Oc2ccc(SC)cc2)c(CN(C)C)c1` [Example 161] here?
Answer: ≤ 100 nM

Question: With `CSc1ccc(Oc2ccc(C(=O)NC(C)CO)cc2CN(C)C)cc1` (stereo not shown) [Example 163] as the compound, how does the IC50 read?
Answer: ≤ 100 nM

Question: What does the source list for `CCNC(=O)c1ccc(Oc2ccc(SC)cc2)c(CN(C)C)c1` [Example 165]?
Answer: IC50: ≤ 100 nM; fold as potent in the inhibition of serotonin re-uptake than in the inhibition of dopamine re-uptake or noradrenaline re-uptake: more than 10 fold

Question: `CSc1ccc(Oc2ccc(C(=O)NCC3CC3)cc2CN(C)C)cc1` [Example 166] was tested. Which IC50 did it give?
Answer: ≤ 100 nM

Question: With `CSc1ccc(Oc2ccc(C(=O)NCC(N)=O)cc2CN(C)C)cc1` [Example 167] as the compound, how does the IC50 read?
Answer: ≤ 100 nM

Question: And the “fold as potent in the inhibition of serotonin re-uptake than in the inhibition of dopamine re-uptake or noradrenaline re-uptake” value?
Answer: more than 10 fold

Question: Which IC50 does the source give for `CSc1ccc(Oc2ccc(C(=O)N3CC[C@@H](O)C3)cc2CN(C)C)cc1` [Example 168] here?
Answer: ≤ 100 nM

Question: What about the “fold as potent in the inhibition of serotonin re-uptake than in the inhibition of dopamine re-uptake or noradrenaline re-uptake” value of the same compound?
Answer: more than 10 fold

Question: Which results are given for `CNCc1cc(C(N)=O)ccc1Oc1ccc(SC)c(OC)c1` [Example 169, 4-[3-Methoxy-4-(methylsulfanyl)phenoxy]-3-[(methylamino)methyl]benzamide]?
Answer: IC50: ≤ 100 nM; fold as potent in the inhibition of serotonin re-uptake than in the inhibition of dopamine re-uptake and noradrenaline re-uptake: more than 100 fold

Question: Which results are given for `CNCc1cc(C(=O)NCCOC)ccc1Oc1ccc(SC)cc1` [Example 170]?
Answer: IC50: ≤ 100 nM; fold as potent in the inhibition of serotonin re-uptake than in the inhibition of dopamine re-uptake and noradrenaline re-uptake: more than 100 fold

Question: With `CNCc1cc(C(=O)NCCO)ccc1Oc1ccc(SC)cc1` [Example 171] as the compound, how does the IC50 read?
Answer: ≤ 100 nM

Question: Which IC50 does the source give for `CNCc1cc(C(=O)NCC(N)=O)ccc1Oc1ccc(SC)cc1` [Example 172] here?
Answer: ≤ 100 nM

Question: `CNCc1cc(C(=O)NC)ccc1Oc1ccc(SC)c(OC)c1` [Example 176] was tested. Which IC50 did it give?
Answer: ≤ 100 nM

Question: And the “fold as potent in the inhibition of serotonin re-uptake than in the inhibition of dopamine re-uptake and noradrenaline re-uptake” value?
Answer: more than 100 fold

Question: For `CNCc1cc(C(N)=O)ccc1Oc1ccc(SC)c(C(F)(F)F)c1` [Example 177, 3-[(Methylamino)methyl]-4-[4-(methylsulfanyl)-3-(trifluoromethyl)phenoxy]-benzamide], which IC50 is on record?
Answer: ≤ 100 nM

Question: For `CSc1ccc(Oc2ccc(C(N)=O)cc2CN(C)C)cc1C(F)(F)F` [Example 178, 3-[(Dimethylamino)methyl]-4-[4-(methylsulfanyl)-3-(trifluoromethyl)-phenoxy]benzamide], which IC50 is on record?
Answer: ≤ 100 nM

Question: `COc1cc(Oc2ccc(C(N)=O)cc2CN(C)C)ccc1SC` [Example 179] was tested. Which IC50 did it give?
Answer: ≤ 100 nM

Question: For `CNC(=O)c1ccc(Oc2ccc(SC)c(OC)c2)c(CN(C)C)c1` [Example 180], which IC50 is on record?
Answer: ≤ 100 nM

Question: With `CSc1ccc(Oc2ccc(-n3ccnn3)cc2CN(C)C)cc1` [Example 184, N,N-Dimethyl-N-[2-[4-(methylsulfanyl)phenoxy]-5-(1 H-1,2,3-triazol-1-yl)benzyl]-amine] as the compound, how does the IC50 read?
Answer: ≤ 100 nM

Question: And the “fold as potent in the inhibition of serotonin re-uptake than in the inhibition of dopamine re-uptake and noradrenaline re-uptake” value?
Answer: more than 100 fold

Question: `CSc1ccc(Oc2ccc(-n3ccnc3)cc2CN(C)C)cc1` [Example 186, N-[2-[4-(Methylsulfanyl)phenoxy]-5-(1 H-imidazol-1-yl)benzyl]-N,N-dimethylamine] was tested. Which IC50 did it give?
Answer: ≤ 100 nM

Question: Which IC50 does the source give for `CSc1ccc(Oc2ccc(-n3cncn3)cc2CN(C)C)cc1` [Example 188, N,N-dimethyl-N-[2-[4-(methylsulfanyl)phenoxy]-5-(1 H-1,2,4-triazol-1-yl)benzyl]-amine] here?
Answer: ≤ 100 nM

Question: Which results are given for `CNCc1cc(-n2ccc(N)n2)ccc1Oc1ccc(SC)cc1` [Example 190, N-{5-(3-Amino-1H-pyrazol-1-yl)-2-[4-(methylsulfanyl)phenoxy]benzyl}-N-methylamine]?
Answer: IC50: ≤ 100 nM; fold as potent in the inhibition of serotonin re-uptake than in the inhibition of dopamine re-uptake and noradrenaline re-uptake: more than 100 fold

Question: Which IC50 does the source give for `CSc1ccc(Oc2ccc(-n3ccc(N)n3)cc2CN(C)C)cc1` [Example 191, N-{5-(3-Amino-1 H-pyrazol-1-yl)-2-[4-(methylsulfanyl)phenoxy]benzyl}-N, N-dimethylamine] here?
Answer: ≤ 100 nM

Question: And the “fold as potent in the inhibition of serotonin re-uptake than in the inhibition of dopamine re-uptake or noradrenaline re-uptake” value?
Answer: more than 10 fold
